Measured values from US8420595B2, “Methods for treating acute acoustic trauma” (Oklahoma Medical Research Foundation, priority 2006, dated 2013).
Some of these results come from one statement about several compounds together. At least one compound was matched to its structure with a doubt left.

System: noise-induced threshold shift (narrow band noise centered at 13.6 kHz, 105 dB SPL for 80 minutes)
Test: Noise-induced ABR threshold shift in rats
Assay type: in vivo, Male Sprague-Dawley rats
Details: NAC 200 mg/kg and/or ALCAR 100 mg/kg i.p., three weeks after noise exposure

CC(=O)O[C@H](CC(=O)[O-])C[N+](C)(C)C [ALCAR, Acetyl-L-Carnitine]
p (t-test) vs noise only control, average threshold shift from all frequencies: < 0.001
